Data taken from publication PMC11853559, “α-Synuclein Iron-Responsive-Element RNA and Iron Regulatory Protein Affinity Is Specifically Reduced by Iron in Parkinson’s Disease”.
Construct, isoform or probe ends are uncertain for at least one entry. Where a protein sequence is shown, tags need not be part of it.

How the values were obtained:
[1] = target: T1, Iron regulatory protein 1 (IRP1) (UniProt P21399); test: fluorescence quenching, Scatchard; details: 50 uM Fe2+, 25 °C; 20 mM HEPES pH 7.4, 100 mM KCl, 1 mM MgCl2; 50 nM IRP1, 0-200 nM RNA; 15 min; 25 °C (5-30 °C series); Fe2+ 50 uM anaerobic where stated; commercial protein
T1 sequence (looked up, limits assumed): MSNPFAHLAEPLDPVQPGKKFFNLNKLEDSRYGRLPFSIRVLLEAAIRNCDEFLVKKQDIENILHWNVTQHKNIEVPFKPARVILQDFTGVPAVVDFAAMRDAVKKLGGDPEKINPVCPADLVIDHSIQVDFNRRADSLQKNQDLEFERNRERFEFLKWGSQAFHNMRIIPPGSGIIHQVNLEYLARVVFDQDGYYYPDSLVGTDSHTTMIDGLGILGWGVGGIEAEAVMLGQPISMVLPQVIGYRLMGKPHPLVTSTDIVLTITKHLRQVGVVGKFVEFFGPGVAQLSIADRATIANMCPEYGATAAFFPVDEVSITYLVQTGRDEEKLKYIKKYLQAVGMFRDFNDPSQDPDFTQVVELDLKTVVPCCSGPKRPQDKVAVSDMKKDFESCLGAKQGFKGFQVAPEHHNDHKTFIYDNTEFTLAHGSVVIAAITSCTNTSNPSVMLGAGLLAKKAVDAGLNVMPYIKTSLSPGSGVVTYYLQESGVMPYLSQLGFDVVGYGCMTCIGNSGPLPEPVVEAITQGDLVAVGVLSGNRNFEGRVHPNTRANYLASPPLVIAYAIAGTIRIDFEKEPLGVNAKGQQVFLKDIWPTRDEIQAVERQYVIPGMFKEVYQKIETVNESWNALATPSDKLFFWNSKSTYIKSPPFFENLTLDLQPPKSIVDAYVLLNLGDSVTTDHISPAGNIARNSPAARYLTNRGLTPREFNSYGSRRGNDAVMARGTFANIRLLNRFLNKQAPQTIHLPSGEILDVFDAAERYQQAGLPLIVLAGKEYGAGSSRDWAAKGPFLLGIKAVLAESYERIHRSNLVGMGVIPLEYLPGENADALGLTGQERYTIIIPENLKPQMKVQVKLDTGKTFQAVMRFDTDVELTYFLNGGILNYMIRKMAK

[2] = target: T1, Iron regulatory protein 1 (IRP1); test: fluorescence quenching (intrinsic); details: 50 uM Fe2+, 20 mM HEPES pH 7.4, 100 mM KCl, 1 mM MgCl2, 50 nM IRP1, 0-200 nM RNA, 15 min, 25 °C (5-30 °C series), Fe2+ 50 uM anaerobic where stated, commercial protein

## ACUGGGAGUGGCCAUUCGACGACAGUGUGGUGUAAAGGAAUUCAUUAGCC [alpha-Syn IRE RNA (SNCA 5'-UTR)]
[1]
  Ka: 6.4 10^6 M-1
[2]; 5 °C
  Kd: 29.6 nM
[2]; 10 °C
  Kd: 54.4 nM
[2]; 15 °C
  Kd: 88.7 nM
[2]; 20 °C
  Kd: 124 nM
[2]; 30 °C
  Kd: 199 nM
[2]; anaerobic, 25 °C
  Kd: 157 nM
